Measurements from the supplement of paper PMC10735217.
Where a name gives a salt, the structure may show the parent alone. Some of the results follow. Repeats in this data set agree poorly, so a single value says little.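 Human kidney-derived cells stably carry a construct in which eight TEAD-binding elements drive luciferase, measured by luminescence in a drug-repurposing library screen. A hit is any compound whose signal exceeds the plate mean by more than five robust Z scores.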

Tested on: HEK293A TEAD-LUC reporter
Test: TEAD-luciferase reporter activity (YAP activation), robust Z score vs plate; higher = stronger YAP/TEAD activation
Settings: 24 h

| SMILES | TEAD-luciferase reporter activity (compound concentration: 200 nM) | TEAD-luciferase reporter activity (compound concentration: 2 uM) | TEAD-luciferase reporter activity (compound concentration: 10 uM) |
| --- | --- | --- | --- |
| CCCCC1(c2ccc3[nH]ccc3c2)CCNC1 (stereo unspecified) | inactive: -1.31 | inactive: -0.913 | inactive: 1.84 |
| COc1ccc2c(c1)c(CC(=O)O)c(C)n2C(=O)c1ccc(Cl)cc1 [Indomethacin] | inactive: -1.39 |  | inactive: -0.059 |
| COc1ccc2c(c1)c(CC(=O)O)c(C)n2C(=O)c1ccc(Cl)cc1 [indometacin (IV)] |  | inactive: -1.51 |  |
| COc1cc2ncnc(Nc3ccc(O)cc3)c2cc1OC | inactive: -0.373 | inactive: -1.58 | active: 8.53 |
| O=C(Cc1ccccc1)Nc1ccc2cnn(CCN3CCCC3)c2c1 | inactive: 3.09 | inactive: -1.84 | inactive: -0.005 |
| CC(=O)CCCCN1C(=O)C2C(N=CN2C)N(C)C1=O (stereo unspecified) | inactive: 1.21 | inactive: -0.238 | inactive: -0.953 |
| COc1ccc([C@@H]2c3occc3C(=O)[C@@H]3COC(=O)[C@@H]23)cc1OC | inactive: -0.955 |  | inactive: -0.0571 |
| COc1cc2c(cc1CN[C@H]1CCCN[C@H]1c1ccccc1)C(C)(C(F)(F)F)OCC2 (stereo partly specified) | inactive: -0.24 | inactive: -0.613 | inactive: 3.2 |
| COc1ccccc1N1CCN(CCN(C(=O)C2CCCCC2)c2ccccn2)CC1 | inactive: -0.377 | inactive: 0.26 | inactive: -2.05 |
| CN1C(=O)c2ccccc2CC12CCCN(C(=O)c1ccc(Cl)cc1)C2 (stereo unspecified) | inactive: -1.41 |  | inactive: 0.562 |
| C#C[C@]1(OC(C)=O)CC[C@H]2[C@@H]3CCC4=CC(=O)CC[C@@H]4[C@H]3CC[C@@]21C [Norethisterone acetate] |  | inactive: -1.49 |  |
| C#C[C@]1(OC(C)=O)CC[C@H]2[C@@H]3CCC4=CC(=O)CC[C@@H]4[C@H]3CC[C@@]21C | inactive: 0.28 |  | inactive: -0.314 |
| Nc1ccc(SC[C@@H]2CO[C@](CCc3ccc(Cl)cc3)(Cn3ccnc3)O2)cc1 [Azalanstat] | inactive: 0.673 | inactive: 0.652 | inactive: 3.19 |
| OCCn1cc(-c2cnc3nnn(Cc4ccc5ncccc5c4)c3n2)cn1 | inactive: -1.6 | inactive: 0.865 | inactive: 3.63 |
| CCCn1c(=O)c2nc(C3CCCC3)[nH]c2n(CCC)c1=O | inactive: -1.09 | inactive: -1.5 | inactive: 2.39 |
| O=C(O)CSC(SCC(=O)O)SCC(=O)O [Ritiometan] | inactive: 0.512 | inactive: 0.875 | inactive: 1.06 |
| Cc1ccc(F)cc1Cn1c(N2CCCC(C)(N)C2)cc2c1c(=O)n(C)c(=O)n2C (stereo unspecified) | inactive: 0.392 | inactive: -0.91 | inactive: 3.34 |
| CC(C(=O)O)c1ccc(C(=O)c2ccccc2)s1 (stereo unspecified) [tiaprofenic acid] |  | inactive: -0.995 |  |
| CC(C(=O)O)c1ccc(C(=O)c2ccccc2)s1 (stereo unspecified) | inactive: -0.191 |  | inactive: 0.668 |

| SMILES | TEAD-luciferase reporter activity (compound concentration: 200 nM) | TEAD-luciferase reporter activity (compound concentration: 2 uM) | TEAD-luciferase reporter activity (compound concentration: 10 uM) |
| --- | --- | --- | --- |
| CC(=O)O[C@H]1C[C@@H]2CC[C@@H]3[C@H](CC[C@@]4(C)[C@H]3C[C@H](N3CC[N+](C)(C)CC3)[C@@H]4OC(C)=O)[C@@]2(C)C[C@@H]1N1CC[N+](C)(C)CC1 [pipecuronium bromide] | inactive: -1.29 |  | inactive: -0.132 |
| COc1cc2c3cc1Oc1cc(ccc1O)C[C@@H]1c4c(cc(OC)c(O)c4Oc4ccc(cc4)C[C@@H]3N(C)CC2)CC[N+]1(C)C | inactive: -0.0565 | inactive: 0.941 | active: 7.29 |
| COc1ccccc1N1CCN(CCCC(=O)c2ccc(F)cc2)CC1 |  | inactive: -1.41 |  |
| COc1ccccc1N1CCN(CCCC(=O)c2ccc(F)cc2)CC1 [Fluanisone] | inactive: 0.463 |  | inactive: -0.879 |
| CN(C)CCN1C(=O)c2cccc3cc([N+](=O)[O-])cc(c23)C1=O [Mitonafide] | inactive: -1.01 | inactive: 3.35 | inactive: 1.78 |
| CC(=O)Nc1ccc([C@H](C)C(=O)Nc2ncc(C(C)C)s2)cc1 | inactive: -0.254 | inactive: -1.48 | inactive: 0.5 |
| CO[C@@]1(NC(=O)CSC(F)F)C(=O)N2C(C(=O)O)=C(CSc3nnnn3CCO)CO[C@@H]21 [flomoxef] | inactive: 0.578 | inactive: -1.06 | inactive: -1.41 |
| CCCCCCCCCCCC(=O)OCC(O)CO (stereo unspecified) [Glycerol monolaurate] | inactive: 0.941 | inactive: -0.592 | inactive: 0.671 |
| N#CNC(=N)NCCCCCCNC(=N)NC(=N)NCCCCCCN | inactive: -1.37 | inactive: 0.604 | inactive: 0.533 |
| CC(CN1c2ccccc2Sc2ccc(S(=O)(=O)N(C)C)cc21)N(C)C (stereo unspecified) | inactive: 0.41 | inactive: 0.525 | inactive: 1.78 |
| CCN(c1nc(C)cc(N2CC=C(c3cccc(F)c3)CC2)n1)c1ccc(C(C)C)cc1Br | inactive: 0.313 | inactive: 1.29 | inactive: 1.9 |
| C[C@H](NC(=O)CNC(=O)C1CCCCC1)C(=O)N[C@H](Cc1c[nH]c2ccccc12)C(=O)N[C@@H](Cc1ccccc1)C(=O)N(C)C | inactive: -1.96 | inactive: 4.34 | inactive: -0.0828 |
| Cc1ccc(CN2CCCC23Cc2ccccc2CNC3=O)cc1C (stereo unspecified) | inactive: -0.745 |  | inactive: -0.538 |
| CC(C)c1cc2c(cc1S(=O)(=O)O)[C@@]1(C)CCC[C@@](C)(C(=O)O)[C@@H]1CC2 [ecabet, Tanabe AAI] | inactive: -0.656 | inactive: -0.499 | inactive: 1.33 |
| CCCCCCCC(=O)CC[C@@H]1[C@@H](C/C=C\CCCC(=O)O)[C@@H](O)C[C@H]1O [Unoprostone] | inactive: 0.662 | inactive: -0.32 | inactive: 1.48 |
| CC(C(=O)O)c1ccc(C2CCC/C(=N\O)C2)cc1 (stereo unspecified) [Ximoprofen] | inactive: -0.674 | inactive: -0.276 | inactive: 0.626 |
| Oc1c(Br)cc(Br)c2cccnc12 | inactive: 4.34 | inactive: -0.461 | inactive: -0.549 |
| Nc1ccc(O)c(C(=O)O)c1 [5-Amino-2-hydroxy-benzoic acid89-57-6] | inactive: -0.722 |  | inactive: -1.05 |
| Nc1ccc(O)c(C(=O)O)c1 [mesalamine, Lupin] |  | inactive: -2.12 |  |

| SMILES | TEAD-luciferase reporter activity (compound concentration: 200 nM) | TEAD-luciferase reporter activity (compound concentration: 2 uM) | TEAD-luciferase reporter activity (compound concentration: 10 uM) |
| --- | --- | --- | --- |
| CC1CCC(C(=O)N(c2cc(-c3ccccc3)sc2C(=O)O)[C@H]2CC[C@H](O)CC2)CC1 (stereo partly specified) | inactive: -0.595 | inactive: 0.594 | inactive: 0.496 |
| Cc1c(C(=O)NN2CCCCC2)nn(-c2ccc(Cl)cc2Cl)c1-c1ccc(I)cc1 | inactive: 0.221 | inactive: 0.555 | inactive: 2.29 |
| CC[C@]1(C)NC(=O)[C@H](Cc2cccs2)NC(=O)[C@@H](Cc2ccccc2)NC(=O)CCCSCC(C(=O)N2C[C@H](O)C[C@H]2C(=O)N[C@H](CCCNC(=N)N)C(=O)NCC(N)=O)NC(=O)[C@H](CC(N)=O)NC1=O (stereo partly specified) | inactive: 0.824 | inactive: 0.837 | inactive: -1.24 |
| CN(C)CCCn1cc(-c2ccccc2)c(-c2ccccc2)n1 [Fezolamine fumarate] | inactive: -0.195 | inactive: 0.764 | active: 9.05 |
| O=C1C[C@@H]2CCN(C(=O)C3CCCC3)C[C@@H]2CCN1 | inactive: -0.368 |  | inactive: 3.51 |
| CN1[C@@H]2CC[C@H]1C[C@@H](NC(=O)c1cn(C3CCCCC3)c3ccccc3c1=O)C2 | inactive: 0.0524 | inactive: -1.16 | inactive: 1.41 |
| COc1cc2ncnc(Nc3ccc(F)c(Cl)c3)c2cc1OCCCN1CCOCC1 [gefitinib] | inactive: -1.33 | inactive: -0.522 | inactive: 1.78 |
| CC#CC(=O)N1CC[C@@H](n2c(=O)n(-c3ccc(Oc4ccccc4)cc3)c3c(N)ncnc32)C1 | inactive: -1.12 | inactive: -1.79 | inactive: -0.532 |
| CC(=O)N(O)C(C)/C=C/c1cccc(Oc2cccc(F)c2)c1 (stereo unspecified) | inactive: 1.89 | inactive: -0.0216 | inactive: -1.08 |
| C#CCOc1ccc(/C=C/C(=O)Nc2ccccc2C(=O)O)cc1OC | inactive: -1.21 | inactive: -1.77 | inactive: -1.27 |
| CCNC(=O)CC[C@H](N)C(=O)O [L-Theanine] | inactive: 0.554 |  | inactive: 1 |
| CCCCC/C=C\C/C=C\CCCCCCC(O)C(=O)O (stereo unspecified) [Sodium 2-hydroxylinoleate] | inactive: -0.6 | inactive: 2.18 | inactive: 0.461 |
| O=C(c1ccccc1)N1CCC(N2CCCNC2=O)CC1 | inactive: -1.29 |  | inactive: 0.145 |
| CCCCCCCCCCCCCC[n+]1ccc(C)cc1 [Myristyl-gamma-picolinium Chloride] | inactive: 2.04 | inactive: -1.93 | inactive: -0.223 |
| COc1cc2c(c3c1c(=O)c1cc4ccccc4cc1n3C)[C@H](O)[C@H](O)C(C)(C)O2 | inactive: -0.982 | inactive: 1.4 | inactive: 2.86 |
| COCCNCCc1cccc(Nc2ncc3c(n2)-c2ccccc2[C@H](c2ccccc2F)C3)c1 | inactive: -0.661 | inactive: -0.498 | inactive: 1.69 |
| C[C@]12CCC(=O)C=C1CC[C@@H]1[C@@H]2[C@@H](O)C[C@@]2(C)[C@H]1CC[C@]2(O)C(=O)COC(=O)c1ccc(CO[N+](=O)[O-])cc1 | inactive: -1.45 | inactive: 0.192 | inactive: 0.895 |
| C/C(=C(\OCCOc1ccc(Cl)cc1)c1ccc(Cl)cc1Cl)n1ccnc1 | inactive: -0.257 | inactive: -1.67 | inactive: -1.43 |

Whole records as entered above.
CC1CCC(C(=O)N(c2cc(-c3ccccc3)sc2C(=O)O)[C@H]2CC[C@H](O)CC2)CC1 (stereo partly specified) reads TEAD-luciferase reporter activity (compound concentration: 200 nM): inactive: -0.595; TEAD-luciferase reporter activity (compound concentration: 2 uM): inactive: 0.594; TEAD-luciferase reporter activity (compound concentration: 10 uM): inactive: 0.496
CC(=O)N(O)C(C)/C=C/c1cccc(Oc2cccc(F)c2)c1 (stereo unspecified) reads TEAD-luciferase reporter activity (compound concentration: 200 nM): inactive: 1.89; TEAD-luciferase reporter activity (compound concentration: 2 uM): inactive: -0.0216; TEAD-luciferase reporter activity (compound concentration: 10 uM): inactive: -1.08
C#CCOc1ccc(/C=C/C(=O)Nc2ccccc2C(=O)O)cc1OC reads TEAD-luciferase reporter activity (compound concentration: 200 nM): inactive: -1.21; TEAD-luciferase reporter activity (compound concentration: 2 uM): inactive: -1.77; TEAD-luciferase reporter activity (compound concentration: 10 uM): inactive: -1.27
